Experimental data taken from paper PMC6733923.
No constants are given. Whether binding was seen depends on the method and setting. Binding seen in cells or lysates may run through a third protein. Some binding calls cover weakened binding; strength is not graded here.

Sequences of proteins named here, by UniProt entry; tags and fusion partners are left off.
UniProt Q05397: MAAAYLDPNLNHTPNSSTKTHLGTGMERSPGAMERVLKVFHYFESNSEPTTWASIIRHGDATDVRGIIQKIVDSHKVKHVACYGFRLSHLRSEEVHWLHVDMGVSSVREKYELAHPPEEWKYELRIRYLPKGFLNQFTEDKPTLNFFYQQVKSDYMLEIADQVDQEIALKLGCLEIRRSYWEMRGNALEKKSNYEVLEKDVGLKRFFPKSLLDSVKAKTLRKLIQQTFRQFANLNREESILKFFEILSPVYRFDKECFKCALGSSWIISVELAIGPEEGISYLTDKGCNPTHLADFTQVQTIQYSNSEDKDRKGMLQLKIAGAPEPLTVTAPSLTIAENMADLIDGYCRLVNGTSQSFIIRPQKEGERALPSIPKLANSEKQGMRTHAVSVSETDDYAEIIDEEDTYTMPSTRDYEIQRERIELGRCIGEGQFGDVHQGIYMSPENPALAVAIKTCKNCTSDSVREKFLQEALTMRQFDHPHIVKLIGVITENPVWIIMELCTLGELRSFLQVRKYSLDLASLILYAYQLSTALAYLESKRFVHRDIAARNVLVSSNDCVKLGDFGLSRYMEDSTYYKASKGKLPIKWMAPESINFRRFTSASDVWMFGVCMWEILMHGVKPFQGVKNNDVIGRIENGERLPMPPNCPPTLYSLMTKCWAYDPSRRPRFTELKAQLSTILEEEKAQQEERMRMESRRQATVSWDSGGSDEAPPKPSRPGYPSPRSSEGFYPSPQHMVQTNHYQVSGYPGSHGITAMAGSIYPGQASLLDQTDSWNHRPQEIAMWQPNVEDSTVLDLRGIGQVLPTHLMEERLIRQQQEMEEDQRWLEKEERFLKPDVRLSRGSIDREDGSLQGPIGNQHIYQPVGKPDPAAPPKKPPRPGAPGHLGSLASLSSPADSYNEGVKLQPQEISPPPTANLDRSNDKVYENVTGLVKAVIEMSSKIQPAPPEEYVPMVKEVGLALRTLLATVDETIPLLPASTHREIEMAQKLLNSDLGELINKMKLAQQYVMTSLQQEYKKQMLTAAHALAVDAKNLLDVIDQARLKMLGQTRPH

Molecular target: Focal adhesion kinase 1 (human (endogenous in HCT-116)) (UniProt Q05397)
Experiment: co-IP; anti-FAK IP from lysate of EGF-stimulated HCT-116 cells, Western blot for zyxin, nesprin-1 and desmoplakin; IgG control

B1: Zyxin (protein, UniProt Q15942 1-572)
chain: MAAPRPSPAISVSVSAPAFYAPQKKFGPVVAPKPKVNPFRPGDSEPPPAPGAQRAQMGRVGEIPPPPPEDFPLPPPPLAGDGDDAEGALGGAFPPPPPPIEESFPPAPLEEEIFPSPPPPPEEEGGPEAPIPPPPQPREKVSSIDLEIDSLSSLLDDMTKNDPFKARVSSGYVPPPVATPFSSKSSTKPAAGGTAPLPPWKSPSSSQPLPQVPAPAQSQTQFHVQPQPQPKPQVQLHVQSQTQPVSLANTQPRGPPASSPAPAPKFSPVTPKFTPVASKFSPGAPGGSGSQPNQKLGHPEALSAGTGSPQPPSFTYAQQREKPRVQEKQHPVPPPAQNQNQVRSPGAPGPLTLKEVEELEQLTQQLMQDMEHPQRQNVAVNELCGRCHQPLARAQPAVRALGQLFHIACFTCHQCAQQLQGQQFYSLEGAPYCEGCYTDTLEKCNTCGEPITDRMLRATGKAYHPHCFTCVVCARPLEGTSFIVDQANRPHCVPDYHKQYAPRCSVCSEPIMPEPGRDETVRVVALDKNFHMKCYKCEDCGKPLSIEADDNGCFPLDGHVLCRKCHTARAQT
- binding: binds
